Experimental data taken from US9834772.
For part of these data: No signal at the amounts used counts as a negative. For part of these data: The comparison behind a weaker result is the experiment's own reference, which may not be listed here.

Legend:
[1] = molecular target: Human serum albumin (HSA) (Homo sapiens) (UniProt P02768); experiment: ELONA; conditions: purified native protein; label: 5' biotin; single-stranded DNA
[2] = molecular target: Glycated human serum albumin (GHSA) (Homo sapiens) (UniProt P02768); experiment: ELONA; conditions: purified native protein; label: 5' biotin; single-stranded DNA
[3] = molecular target: Glycated human serum albumin (GHSA) (Homo sapiens) (UniProt P02768); experiment: EMSA; conditions: lower affinity than G8; indirect ELISA + at 200, 20, 2 nM, - at 0.2 nM (Table 9); purified native protein; label: 5' biotin; single-stranded DNA

TCCCCCCATCACACCCAAGCCGCAGCCACCGACATAGCAAGCATTGTCTTTCC [G12]
binding result [1]: no binding

ATACCAGCTTATTCAATTCGCGCACATATACAGGGCTTTACCAGCGGGGAAGGTTAGCGACGCGAGGGGGAGATAGTAAGTGCAATCT [H14]
binding result [2]: no binding

TAACTCACTCCATACTCACTTGCTGATTCGCCAACAACACACCCTTAAACAGTCCC [clone 9]
binding result [3]: binds more weakly
